No constants are given. Whether binding was seen depends on the method and setting. Binding seen in cells or lysates may run through a third protein. These calls come from enrichment with a bait or labelling near it, and not all partners need be listed. Sequences can lack the tags named with a protein.
B1: rRNA 2′-O-methyltransferase fibrillarin (protein, UniProt P22087 1-321)
chain: MKPGFSPRGGGFGGRGGFGDRGGRGGRGGFGGGRGRGGGFRGRGRGGGGGGGGGGGGGRGGGGFHSGGNRGRGRGGKRGNQSGKNVMVEPHRHEGVFICRGKEDALVTKNLVPGESVYGEKRVSISEGDDKIEYRAWNPFRSKLAAAILGGVDQIHIKPGAKVLYLGAASGTTVSHVSDIVGPDGLVYAVEFSHRSGRDLINLAKKRTNIIPVIEDARHPHKYRMLIAMVDVIFADVAQPDQTRIVALNAHTFLRNGGHFVISIKANCIDSTASAEAVFASEVKKMQQENMKPQEQLTLEPYERDHAVVVGVYRPPPKVKN
B2: Histone deacetylase complex subunit SAP18 (protein, UniProt O00422 1-153)
chain: MAVESRVTQEEIKKEPEKPIDREKTCPLLLRVFTTNNGRHHRMDEFSRGNVPSSELQIYTWMDATLKELTSLVKEVYPEARKKGTHFNFAIVFTDVKRPGYRVKEIGSTMSGRKGTDDSMTLQSQKFQIGDYLDIAITPPNRAPPPSGRMRPY
B3: Replication factor C subunit 1 (protein, UniProt P35251 1-1148)
chain: MDIRKFFGVIPSGKKLVSETVKKNEKTKSDEETLKAKKGIKEIKVNSSRKEDDFKQKQPSKKKRIIYDSDSESEETLQVKNAKKPPEKLPVSSKPGKISRQDPVTYISETDEEDDFMCKKAASKSKENGRSTNSHLGTSNMKKNEENTKTKNKPLSPIKLTPTSVLDYFGTGSVQRSNKKMVASKRKELSQNTDESGLNDEAIAKQLQLDEDAELERQLHEDEEFARTLAMLDEEPKTKKARKDTEAGETFSSVQANLSKAEKHKYPHKVKTAQVSDERKSYSPRKQSKYESSKESQQHSKSSADKIGEVSSPKASSKLAIMKRKEESSYKEIEPVASKRKENAIKLKGETKTPKKTKSSPAKKESVSPEDSEKKRTNYQAYRSYLNREGPKALGSKEIPKGAENCLEGLIFVITGVLESIERDEAKSLIERYGGKVTGNVSKKTNYLVMGRDSGQSKSDKAAALGTKIIDEDGLLNLIRTMPGKKSKYEIAVETEMKKESKLERTPQKNVQGKRKISPSKKESESKKSRPTSKRDSLAKTIKKETDVFWKSLDFKEQVAEETSGDSKARNLADDSSENKVENLLWVDKYKPTSLKTIIGQQGDQSCANKLLRWLRNWQKSSSEDKKHAAKFGKFSGKDDGSSFKAALLSGPPGVGKTTTASLVCQELGYSYVELNASDTRSKSSLKAIVAESLNNTSIKGFYSNGAASSVSTKHALIMDEVDGMAGNEDRGGIQELIGLIKHTKIPIICMCNDRNHPKIRSLVHYCFDLRFQRPRVEQIKGAMMSIAFKEGLKIPPPAMNEIILGANQDIRQVLHNLSMWCARSKALTYDQAKADSHRAKKDIKMGPFDVARKVFAAGEETAHMSLVDKSDLFFHDYSIAPLFVQENYIHVKPVAAGGDMKKHLMLLSRAADSICDGDLVDSQIRSKQNWSLLPAQAIYASVLPGELMRGYMTQFPTFPSWLGKHSSTGKHDRIVQDLALHMSLRTYSSKRTVNMDYLSLLRDALVQPLTSQGVDGVQDVVALMDTYYLMKEDFENIMEISSWGGKPSPFSKLDPKVKAAFTRAYNKEAHLTPYSLQAIKASRHSTSPSLDSEYNEELNEDDSQSDEKDQDAIETDAMIKKKTKSSKPSKPEKDKEPRKGKGKSSKK
B4: Barrier-to-autointegration factor (protein, UniProt O75531 1-89)
chain: MTTSQKHRDFVAEPMGEKPVGSLAGIGEVLGKKLEERGFDKAYVVLGQFLVLKKDEDLFREWLKDTCGANAKQSRDCFGCLREWCDAFL
B5: Structural maintenance of chromosomes protein 1A (protein, UniProt Q14683 1-1233)
chain: MGFLKLIEIENFKSYKGRQIIGPFQRFTAIIGPNGSGKSNLMDAISFVLGEKTSNLRVKTLRDLIHGAPVGKPAANRAFVSMVYSEEGAEDRTFARVIVGGSSEYKINNKVVQLHEYSEELEKLGILIKARNFLVFQGAVESIAMKNPKERTALFEEISRSGELAQEYDKRKKEMVKAEEDTQFNYHRKKNIAAERKEAKQEKEEADRYQRLKDEVVRAQVQLQLFKLYHNEVEIEKLNKELASKNKEIEKDKKRMDKVEDELKEKKKELGKMMREQQQIEKEIKEKDSELNQKRPQYIKAKENTSHKIKKLEAAKKSLQNAQKHYKKRKGDMDELEKEMLSVEKARQEFEERMEEESQSQGRDLTLEENQVKKYHRLKEEASKRAATLAQELEKFNRDQKADQDRLDLEERKKVETEAKIKQKLREIEENQKRIEKLEEYITTSKQSLEEQKKLEGELTEEVEMAKRRIDEINKELNQVMEQLGDARIDRQESSRQQRKAEIMESIKRLYPGSVYGRLIDLCQPTQKKYQIAVTKVLGKNMDAIIVDSEKTGRDCIQYIKEQRGEPETFLPLDYLEVKPTDEKLRELKGAKLVIDVIRYEPPHIKKALQYACGNALVCDNVEDARRIAFGGHQRHKTVALDGTLFQKSGVISGGASDLKAKARRWDEKAVDKLKEKKERLTEELKEQMKAKRKEAELRQVQSQAHGLQMRLKYSQSDLEQTKTRHLALNLQEKSKLESELANFGPRINDIKRIIQSREREMKDLKEKMNQVEDEVFEEFCREIGVRNIREFEEEKVKRQNEIAKKRLEFENQKTRLGIQLDFEKNQLKEDQDKVHMWEQTVKKDENEIEKLKKEEQRHMKIIDETMAQLQDLKNQHLAKKSEVNDKNHEMEEIRKKLGGANKEMTHLQKEVTAIETKLEQKRSDRHNLLQACKMQDIKLPLSKGTMDDISQEEGSSQGEDSVSGSQRISSIYAREALIEIDYGDLCEDLKDAQAEEEIKQEMNTLQQKLNEQQSVLQRIAAPNMKAMEKLESVRDKFQETSDEFEAARKRAKKAKQAFEQIKKERFDRFNACFESVATNIDEIYKALSRNSSAQAFLGPENPEEPYLDGINYNCVAPGKRFRPMDNLSGGEKTVAALALLFAIHSYKPAPFFVLDEIDAALDNTNIGKVANYIKEQSTCNFQAIVISLKEEFYTKAESLIGVYPEQGDCVISKVLTFDLTKYPDANPNPNEQ

Sequences of proteins named here, by UniProt entry; tags and fusion partners are left off. A change or cut given only in a name is not applied to a line headed by its entry.
UniProt P68400: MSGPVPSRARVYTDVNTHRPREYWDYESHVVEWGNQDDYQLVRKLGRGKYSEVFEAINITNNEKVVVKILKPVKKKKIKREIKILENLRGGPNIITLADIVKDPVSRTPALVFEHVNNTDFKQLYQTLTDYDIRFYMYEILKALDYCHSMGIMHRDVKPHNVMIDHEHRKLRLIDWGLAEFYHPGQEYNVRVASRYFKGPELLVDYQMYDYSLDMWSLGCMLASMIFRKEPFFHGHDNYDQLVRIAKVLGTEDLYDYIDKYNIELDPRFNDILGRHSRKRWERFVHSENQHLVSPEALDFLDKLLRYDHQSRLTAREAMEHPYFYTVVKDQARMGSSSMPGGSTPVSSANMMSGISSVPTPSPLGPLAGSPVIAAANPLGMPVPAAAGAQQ
UniProt Q6KC79: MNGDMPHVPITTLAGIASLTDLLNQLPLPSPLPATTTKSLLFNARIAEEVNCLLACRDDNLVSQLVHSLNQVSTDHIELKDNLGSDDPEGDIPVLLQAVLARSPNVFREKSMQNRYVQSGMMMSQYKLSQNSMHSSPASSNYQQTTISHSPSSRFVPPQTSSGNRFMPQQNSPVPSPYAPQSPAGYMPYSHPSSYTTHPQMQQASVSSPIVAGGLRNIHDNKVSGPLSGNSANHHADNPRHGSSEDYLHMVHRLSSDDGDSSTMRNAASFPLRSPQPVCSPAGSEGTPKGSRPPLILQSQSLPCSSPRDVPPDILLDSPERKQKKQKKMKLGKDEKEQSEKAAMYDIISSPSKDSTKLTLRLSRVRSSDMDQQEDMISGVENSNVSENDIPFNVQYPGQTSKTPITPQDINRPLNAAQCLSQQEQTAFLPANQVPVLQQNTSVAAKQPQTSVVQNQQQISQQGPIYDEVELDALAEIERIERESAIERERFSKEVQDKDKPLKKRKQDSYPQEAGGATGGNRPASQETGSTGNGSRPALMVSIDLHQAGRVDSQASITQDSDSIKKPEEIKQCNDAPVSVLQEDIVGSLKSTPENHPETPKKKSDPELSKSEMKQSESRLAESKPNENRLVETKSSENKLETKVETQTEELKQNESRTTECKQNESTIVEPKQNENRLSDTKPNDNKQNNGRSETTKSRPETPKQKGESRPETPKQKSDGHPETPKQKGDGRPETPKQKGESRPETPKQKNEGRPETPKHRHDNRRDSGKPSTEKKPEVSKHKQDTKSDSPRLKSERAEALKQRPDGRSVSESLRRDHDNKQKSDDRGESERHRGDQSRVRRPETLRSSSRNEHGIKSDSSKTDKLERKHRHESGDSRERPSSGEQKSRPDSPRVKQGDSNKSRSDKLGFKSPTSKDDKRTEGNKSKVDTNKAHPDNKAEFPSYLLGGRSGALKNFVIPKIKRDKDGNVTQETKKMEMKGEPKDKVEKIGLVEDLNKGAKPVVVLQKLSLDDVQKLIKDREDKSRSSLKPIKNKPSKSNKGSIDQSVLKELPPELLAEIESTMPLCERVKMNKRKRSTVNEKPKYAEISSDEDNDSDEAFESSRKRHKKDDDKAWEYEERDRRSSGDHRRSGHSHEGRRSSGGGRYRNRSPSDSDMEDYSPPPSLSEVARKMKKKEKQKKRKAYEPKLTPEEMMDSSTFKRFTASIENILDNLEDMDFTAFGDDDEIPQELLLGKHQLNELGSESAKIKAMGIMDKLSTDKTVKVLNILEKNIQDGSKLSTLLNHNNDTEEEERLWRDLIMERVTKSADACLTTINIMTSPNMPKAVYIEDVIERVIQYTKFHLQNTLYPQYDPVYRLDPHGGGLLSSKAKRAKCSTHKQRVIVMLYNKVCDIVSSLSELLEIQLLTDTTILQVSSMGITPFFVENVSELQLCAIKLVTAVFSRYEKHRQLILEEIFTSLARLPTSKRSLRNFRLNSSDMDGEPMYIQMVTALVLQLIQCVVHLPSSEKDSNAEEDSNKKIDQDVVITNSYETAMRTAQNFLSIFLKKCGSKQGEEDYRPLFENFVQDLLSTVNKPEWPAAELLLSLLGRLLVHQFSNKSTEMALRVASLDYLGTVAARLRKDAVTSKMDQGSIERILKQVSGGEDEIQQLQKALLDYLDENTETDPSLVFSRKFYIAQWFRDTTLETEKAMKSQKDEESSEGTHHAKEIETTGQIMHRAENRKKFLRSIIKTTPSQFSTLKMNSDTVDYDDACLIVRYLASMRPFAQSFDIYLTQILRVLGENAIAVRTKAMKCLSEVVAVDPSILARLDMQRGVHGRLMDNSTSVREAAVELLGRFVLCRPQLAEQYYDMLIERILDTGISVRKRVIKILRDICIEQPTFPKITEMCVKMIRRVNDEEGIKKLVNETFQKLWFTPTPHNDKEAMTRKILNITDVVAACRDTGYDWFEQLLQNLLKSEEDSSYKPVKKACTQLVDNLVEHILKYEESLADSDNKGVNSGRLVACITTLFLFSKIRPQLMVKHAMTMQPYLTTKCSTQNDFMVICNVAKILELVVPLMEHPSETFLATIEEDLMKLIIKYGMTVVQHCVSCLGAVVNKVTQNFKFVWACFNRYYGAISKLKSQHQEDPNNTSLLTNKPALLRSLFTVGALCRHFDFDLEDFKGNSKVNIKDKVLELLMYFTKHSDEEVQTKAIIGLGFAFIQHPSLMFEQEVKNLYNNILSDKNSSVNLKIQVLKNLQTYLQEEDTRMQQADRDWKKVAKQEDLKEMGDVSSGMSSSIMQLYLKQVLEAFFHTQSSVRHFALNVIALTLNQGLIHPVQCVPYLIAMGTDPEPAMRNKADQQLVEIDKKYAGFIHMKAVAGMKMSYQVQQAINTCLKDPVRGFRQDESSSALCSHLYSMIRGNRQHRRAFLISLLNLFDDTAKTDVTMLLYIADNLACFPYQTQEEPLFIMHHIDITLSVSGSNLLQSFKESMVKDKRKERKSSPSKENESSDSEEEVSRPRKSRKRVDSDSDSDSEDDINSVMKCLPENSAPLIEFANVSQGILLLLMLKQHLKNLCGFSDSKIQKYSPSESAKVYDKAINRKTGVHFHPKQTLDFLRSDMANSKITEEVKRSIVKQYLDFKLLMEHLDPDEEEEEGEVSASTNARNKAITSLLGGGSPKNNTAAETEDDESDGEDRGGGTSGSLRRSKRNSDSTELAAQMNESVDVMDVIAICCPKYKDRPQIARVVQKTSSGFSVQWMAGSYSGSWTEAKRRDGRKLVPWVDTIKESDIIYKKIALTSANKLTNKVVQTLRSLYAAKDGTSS
UniProt Q92769: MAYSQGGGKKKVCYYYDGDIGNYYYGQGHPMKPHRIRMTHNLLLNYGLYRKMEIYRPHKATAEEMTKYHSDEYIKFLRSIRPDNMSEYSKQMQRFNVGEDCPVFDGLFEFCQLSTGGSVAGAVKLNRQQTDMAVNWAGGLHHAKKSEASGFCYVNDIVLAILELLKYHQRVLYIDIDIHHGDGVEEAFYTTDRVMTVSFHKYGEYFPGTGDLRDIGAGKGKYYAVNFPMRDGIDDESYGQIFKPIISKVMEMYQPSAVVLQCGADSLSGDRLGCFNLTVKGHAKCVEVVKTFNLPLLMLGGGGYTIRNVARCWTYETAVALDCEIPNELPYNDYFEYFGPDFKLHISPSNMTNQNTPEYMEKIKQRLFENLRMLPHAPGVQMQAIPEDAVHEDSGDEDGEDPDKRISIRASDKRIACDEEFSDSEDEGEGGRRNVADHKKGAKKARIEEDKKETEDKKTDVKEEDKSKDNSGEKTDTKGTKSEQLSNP
UniProt Q969G3: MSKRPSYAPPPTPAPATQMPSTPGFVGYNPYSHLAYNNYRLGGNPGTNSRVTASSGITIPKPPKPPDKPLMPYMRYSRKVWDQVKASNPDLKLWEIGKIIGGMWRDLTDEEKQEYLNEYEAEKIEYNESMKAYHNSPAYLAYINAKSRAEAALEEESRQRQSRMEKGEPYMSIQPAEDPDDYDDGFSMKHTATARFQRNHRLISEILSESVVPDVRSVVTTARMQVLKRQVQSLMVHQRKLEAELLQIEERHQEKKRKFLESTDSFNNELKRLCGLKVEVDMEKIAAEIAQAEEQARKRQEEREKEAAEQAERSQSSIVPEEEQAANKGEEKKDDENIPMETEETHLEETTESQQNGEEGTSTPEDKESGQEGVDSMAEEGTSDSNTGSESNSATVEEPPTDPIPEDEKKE
UniProt P0C0S5: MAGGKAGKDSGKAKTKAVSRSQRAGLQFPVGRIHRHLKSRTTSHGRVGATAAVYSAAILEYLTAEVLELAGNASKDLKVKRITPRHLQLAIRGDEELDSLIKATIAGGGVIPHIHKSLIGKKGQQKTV
UniProt O00571: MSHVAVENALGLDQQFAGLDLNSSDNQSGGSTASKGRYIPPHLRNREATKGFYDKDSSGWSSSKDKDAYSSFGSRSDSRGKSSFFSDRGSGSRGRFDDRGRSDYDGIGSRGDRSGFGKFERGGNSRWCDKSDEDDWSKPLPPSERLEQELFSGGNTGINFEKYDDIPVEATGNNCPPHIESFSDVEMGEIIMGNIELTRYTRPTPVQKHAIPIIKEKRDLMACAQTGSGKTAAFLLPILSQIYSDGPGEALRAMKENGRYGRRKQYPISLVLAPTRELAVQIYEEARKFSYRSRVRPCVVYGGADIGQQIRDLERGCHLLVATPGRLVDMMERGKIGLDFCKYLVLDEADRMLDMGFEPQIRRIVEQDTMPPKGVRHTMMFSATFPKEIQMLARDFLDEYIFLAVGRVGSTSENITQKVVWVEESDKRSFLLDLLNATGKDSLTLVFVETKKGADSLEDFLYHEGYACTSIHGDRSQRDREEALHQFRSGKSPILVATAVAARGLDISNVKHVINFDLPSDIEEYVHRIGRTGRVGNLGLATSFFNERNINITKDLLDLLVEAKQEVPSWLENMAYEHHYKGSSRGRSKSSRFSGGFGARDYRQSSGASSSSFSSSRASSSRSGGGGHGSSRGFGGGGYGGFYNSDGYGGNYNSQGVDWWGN
UniProt Q02880: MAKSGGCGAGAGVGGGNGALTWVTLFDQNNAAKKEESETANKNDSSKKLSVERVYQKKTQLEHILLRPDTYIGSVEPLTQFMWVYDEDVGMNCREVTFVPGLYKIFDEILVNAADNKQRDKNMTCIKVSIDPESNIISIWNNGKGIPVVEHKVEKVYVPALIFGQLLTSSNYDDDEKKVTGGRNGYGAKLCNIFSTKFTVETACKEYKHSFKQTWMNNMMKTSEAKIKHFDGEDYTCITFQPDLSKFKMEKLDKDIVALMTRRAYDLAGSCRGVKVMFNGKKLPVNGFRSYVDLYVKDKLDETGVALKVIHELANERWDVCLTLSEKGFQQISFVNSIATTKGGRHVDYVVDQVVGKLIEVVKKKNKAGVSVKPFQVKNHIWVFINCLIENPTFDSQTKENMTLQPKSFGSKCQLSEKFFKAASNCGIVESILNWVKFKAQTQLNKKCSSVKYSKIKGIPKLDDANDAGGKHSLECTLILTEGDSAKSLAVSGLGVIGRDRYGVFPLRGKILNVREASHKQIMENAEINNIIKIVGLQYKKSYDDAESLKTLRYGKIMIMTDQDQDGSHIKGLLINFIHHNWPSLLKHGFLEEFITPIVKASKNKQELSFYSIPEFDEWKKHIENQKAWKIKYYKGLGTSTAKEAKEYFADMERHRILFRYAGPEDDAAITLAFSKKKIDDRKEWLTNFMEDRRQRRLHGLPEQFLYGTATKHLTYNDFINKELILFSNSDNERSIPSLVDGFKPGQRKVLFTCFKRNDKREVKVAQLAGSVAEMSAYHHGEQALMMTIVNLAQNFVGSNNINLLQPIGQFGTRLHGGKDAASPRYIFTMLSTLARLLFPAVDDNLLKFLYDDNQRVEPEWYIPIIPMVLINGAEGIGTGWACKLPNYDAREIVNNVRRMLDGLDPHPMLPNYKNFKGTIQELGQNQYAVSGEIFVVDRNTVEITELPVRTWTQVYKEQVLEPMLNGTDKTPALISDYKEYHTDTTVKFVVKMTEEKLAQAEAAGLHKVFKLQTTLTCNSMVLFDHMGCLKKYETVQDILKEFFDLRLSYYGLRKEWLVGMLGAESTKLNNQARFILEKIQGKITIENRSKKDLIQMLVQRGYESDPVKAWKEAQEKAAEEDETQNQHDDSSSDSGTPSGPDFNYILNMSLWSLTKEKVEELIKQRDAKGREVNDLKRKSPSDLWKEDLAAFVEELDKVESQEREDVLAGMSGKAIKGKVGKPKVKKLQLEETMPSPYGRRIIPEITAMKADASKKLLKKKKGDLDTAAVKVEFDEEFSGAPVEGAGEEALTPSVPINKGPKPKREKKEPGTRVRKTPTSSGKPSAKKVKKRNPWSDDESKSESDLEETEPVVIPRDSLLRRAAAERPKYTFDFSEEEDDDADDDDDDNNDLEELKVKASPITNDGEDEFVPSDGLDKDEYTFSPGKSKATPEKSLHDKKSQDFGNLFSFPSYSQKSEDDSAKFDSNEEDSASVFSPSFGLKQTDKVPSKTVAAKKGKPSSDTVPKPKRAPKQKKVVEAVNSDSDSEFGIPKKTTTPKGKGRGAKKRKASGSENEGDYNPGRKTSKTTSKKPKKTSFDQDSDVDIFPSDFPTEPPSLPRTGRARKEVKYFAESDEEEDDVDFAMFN

Target: FLAG-tagged CK2α (human) (UniProt P68400)
Test: affinity purification with mass spectrometry; FLAG-CK2α expressed in HEK293; nuclear fractions of cells starved and restimulated with serum to early G1 (6 h) or late G1 (15-16 h); pre-cleared with normal IgG-agarose, anti-FLAG M2 agarose, eluted with FLAG peptide, trypsin, nano-LC MS/MS (Mascot)

Row | Molecule | binding
1 | Replication protein A 70 kD DNA-binding subunit (from UniProt P27694 1-616) | binds
2 | Probable global transcription activator SNF2L1 (from UniProt P28370 1-1042) | binds
3 | Histone-binding protein RBBP4 (from UniProt Q09028 1-425) | binds
4 | Nipped-B-like protein (from UniProt Q6KC79 1-2804) | binds
5 | Splicing factor 3B subunit 1 (from UniProt O75533 1-1304) | binds
6 | DDX17 (from UniProt Q92841 1-729) | binds
7 | Replication factor C subunit 4 (from UniProt P35249 1-363) | binds
8 | Histone deacetylase 2 (HDAC2) (from UniProt Q92769 1-488) | binds
9 | Transcription activator BRG1 (from UniProt P51532 1-1647) | binds
10 | PARP1 (from UniProt P09874 1-1014) | binds
11 | Heterochromatin protein 1-binding protein 3 (from UniProt Q5SSJ5 1-553) | binds
12 | Transcription intermediary factor 1-beta (from UniProt Q13263 1-835) | binds
13 | NOLC1 (from UniProt Q14978 1-699) | binds
14 | Protein arginine N-methyltransferase 5 (from UniProt O14744 1-637) | binds
15 | DNA-directed RNA polymerase I subunit RPA34 (from UniProt O15446 1-510) | binds
16 | SWI/SNF-related matrix-associated actin-dependent regulator of chromatin subfamily E member 1 (from UniProt Q969G3 1-411) | binds
17 | Histone H1.3 (from UniProt P16402 1-221) | binds
18 | Putative pre-mRNA splicing factor ATP-dependent RNA helicase DHX15 (from UniProt O43143 1-795) | binds
19 | Transcriptional regulator ATRX (from UniProt P46100 1-2492) | binds
20 | Mediator of DNA damage checkpoint protein 1 (MDC1) (from UniProt Q14676 1-2089) | binds
21 | DDX39B (from UniProt Q13838 1-428) | binds
22 | Histone H2A.Z (from UniProt P0C0S5 1-128) | binds
23 | Histone H1.2 (from UniProt P16403 1-213) | binds

Row | Molecule | binding
24 | NPM1 (from UniProt P06748 1-294) | binds
25 | FACT complex subunit SSRP1 (from UniProt Q08945 1-709) | binds
26 | Histone H1.0 (from UniProt P07305 1-194) | binds
27 | X-ray repair cross-complementing protein 6 (from UniProt P12956 1-609) | binds
28 | DDX21 (from UniProt Q9NR30 1-783) | binds
29 | RuvB-like 1 (from UniProt Q9Y265 1-456) | binds
30 | Transcriptional repressor p66-beta (from UniProt Q8WXI9 1-593) | binds
31 | Transcription initiation factor TFIID subunit 4 (from UniProt O00268 1-1085) | binds
32 | Bcl-2-associated transcription factor 1 (from UniProt Q9NYF8 1-920) | binds
33 | U5 small nuclear ribonucleoprotein 200-kD helicase (from UniProt O75643 1-2136) | binds
34 | Methylosome protein 50 (WDR77) (from UniProt Q9BQA1 1-342) | binds
35 | ATP-dependent RNA helicase DDX3X (from UniProt O00571 1-662) | binds
36 | FACT complex subunit SPT16 (from UniProt Q9Y5B9 1-1047) | binds
37 | Splicing factor 3B subunit 2 (from UniProt Q13435 1-895) | binds
38 | Eukaryotic initiation factor 4A-I (from UniProt P60842 1-406) | binds
39 | DNA topoisomerase 2-beta (from UniProt Q02880 1-1626) | binds
40 | General transcription factor II-I (from UniProt P78347 1-998) | binds
41 | B1 | binds
42 | B2 | binds
43 | B3 | binds
44 | B4 | binds
45 | B5 | binds
